Experimental data: PMC4405695
Substitutions are numbered along the chain they refer to. Names and notes keep the numbering of the source. No constants are given. Whether binding was seen depends on the method and setting. Binding seen in cells or lysates may run through a third protein. Some binding calls cover weakened binding; strength is not graded here. For some of these results: Tags and fused reporters may be left off the sequences shown. Each block holds one binder with its values, some of them ahead of it.

The chains behind the UniProt entries cited, without tags or fusion partners. Where a name states a change or a piece, a line headed by the entry shows the natural chain unless it says otherwise.
UniProt P20340: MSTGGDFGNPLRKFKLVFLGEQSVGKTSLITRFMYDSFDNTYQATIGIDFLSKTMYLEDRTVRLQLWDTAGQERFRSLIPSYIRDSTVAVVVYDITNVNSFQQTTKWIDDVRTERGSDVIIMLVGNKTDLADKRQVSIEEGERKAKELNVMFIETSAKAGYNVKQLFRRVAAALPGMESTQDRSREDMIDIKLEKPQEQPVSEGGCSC
UniProt P20339: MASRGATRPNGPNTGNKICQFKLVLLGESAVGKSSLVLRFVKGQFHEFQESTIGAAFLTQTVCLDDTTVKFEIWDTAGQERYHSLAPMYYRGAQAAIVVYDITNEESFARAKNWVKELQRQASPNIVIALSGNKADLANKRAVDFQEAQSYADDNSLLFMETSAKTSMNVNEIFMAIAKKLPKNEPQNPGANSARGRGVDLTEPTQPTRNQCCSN

What was measured:
GST-Rab6A Q72L [1] = biological target: GST-Rab6A Q72L (UniProt P20340); assay: pull-down; in vitro translated myc-KIF1C constructs (optimally 11.25 nM) with GTPγS-loaded GST-Rabs (0.2-5 μM), Buffer A plus 1 mM DTT, 1 hr 25°C, glutathione-Sepharose, washes with 400 mM NaCl; anti-myc immunoblot; only the target purified
GFP-Rab6A = GFP-Rab6A (UniProt P20340); assay: co-IP; HEK293 cells transfected 48 hr; lysis in 50 mM Hepes pH 7.4, 150 mM NaCl, 1% CHAPS; llama GFP-binding protein on Sepharose; immunoblot with anti-myc or anti-Rab6A
His-Rab6A = His-Rab6A (UniProt P20340); assay: co-sedimentation; desalted in vitro synthesized 35S-myc-KIF1C with GTPγS-preloaded His-Rabs (4.2 μM), then 0.8 µg/µl Paclitaxel stabilized microtubules, 2.5 mM ADP, 0.5 mM GTPγS; 10% sucrose cushion; scintillation counting; only the target purified
GST-Rab6A Q72L [2] = biological target: GST-Rab6A Q72L (UniProt P20340); assay: pull-down; data not shown; KIF1C constructs with GST-Rab6A; only the target purified
GST-Rab5A Q79L = GST-Rab5A Q79L (UniProt P20339); assay: pull-down; in vitro translated myc-KIF1C constructs (optimally 11.25 nM) with GTPγS-loaded GST-Rabs (0.2-5 μM), Buffer A plus 1 mM DTT, 1 hr 25°C, glutathione-Sepharose, washes with 400 mM NaCl; anti-myc immunoblot; only the target purified
GST-Rab9A = biological target: T1, GST-Rab9A (UniProt P51151); assay: as above
T1 sequence: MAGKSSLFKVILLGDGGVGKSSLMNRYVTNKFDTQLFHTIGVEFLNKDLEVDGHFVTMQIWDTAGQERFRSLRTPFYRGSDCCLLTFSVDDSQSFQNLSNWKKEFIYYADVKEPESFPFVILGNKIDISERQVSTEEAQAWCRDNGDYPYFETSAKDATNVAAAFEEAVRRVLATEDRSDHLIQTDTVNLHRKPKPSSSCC

binding (GST-Rab6A Q72L [1]): binds
B1: myc-KIF1CΔCBD (domain or fragment, UniProt O43896 1-1060)
chain: MAGASVKVAVRVRPFNARETSQDAKCVVSMQGNTTSIINPKQSKDAPKSFTFDYSYWSHTSTEDPQFASQQQVYRDIGEEMLLHAFEGYNVCIFAYGQTGAGKSYTMMGRQEPGQQGIVPQLCEDLFSRVSENQSAQLSYSVEVSYMEIYCERVRDLLNPKSRGSLRVREHPILGPYVQDLSKLAVTSYADIADLMDCGNKARTVAATNMNETSSRSHAVFTIVFTQRCHDQLTGLDSEKVSKISLVDLAGSERADSSGARGMRLKEGANINKSLTTLGKVISALADMQSKKRKSDFIPYRDSVLTWLLKENLGGNSRTAMIAALSPADINYEETLSTLRYADRTKQIRCNAIINEDPNARLIRELQEEVARLRELLMAQGLSASALEGLKTEEGSVRGALPAVSSPPAPVSPSSPTTHNGELEPSFSPNTESQIGPEEAMERLQETEKIIAELNETWEEKLRKTEALRMEREALLAEMGVAVREDGGTVGVFSPKKTPHLVNLNEDPLMSECLLYHIKDGVTRVGQVDMDIKLTGQFIREQHCLFRSIPQPDGEVVVTLEPCEGAETYVNGKLVTEPLVLKSGNRIVMGKNHVFRFNHPEQARLERERGVPPPPGPPSEPVDWNFAQKELLEQQGIDIKLEMEKRLQDLENQYRKEKEEADLLLEQQRLYADSDSGDDSDKRSCEESWRLISSLREQLPPTTVQTIVKRCGLPSSGKRRAPRRVYQIPQRRRLQGKDPRWATMADLKMQAVKEICYEVALADFRHGRAEIEALAALKMRELCRTYGKPDGPGDAWRAVARDVWDTVGEEEGGGAGSGGGSEEGARGAEVEDLRAHIDKLTGILQEVKLQNSSKDRELQALRDRMLRMERVIPLAQDHEDENEEGGEVPWAPPEGSEAAEEAAPSDRMPSARPPSPPLSSWERVSRLMEEDPAFRRGRLRWLKQEQLRLQGLQGSGGRGGGLRRPPARFVPPHDCKLRFPFKSNPQHRESWPGMGSGEAPTPLQPPEEVTPHPATPARRPPSPRRSHHPRRNSLDGGGRSRGAGSAQPEPQHFQPKKHNS

binding (GFP-Rab6A): binds
B2: full-length myc-KIF1C (protein, UniProt O43896 1-1103)
chain: MAGASVKVAVRVRPFNARETSQDAKCVVSMQGNTTSIINPKQSKDAPKSFTFDYSYWSHTSTEDPQFASQQQVYRDIGEEMLLHAFEGYNVCIFAYGQTGAGKSYTMMGRQEPGQQGIVPQLCEDLFSRVSENQSAQLSYSVEVSYMEIYCERVRDLLNPKSRGSLRVREHPILGPYVQDLSKLAVTSYADIADLMDCGNKARTVAATNMNETSSRSHAVFTIVFTQRCHDQLTGLDSEKVSKISLVDLAGSERADSSGARGMRLKEGANINKSLTTLGKVISALADMQSKKRKSDFIPYRDSVLTWLLKENLGGNSRTAMIAALSPADINYEETLSTLRYADRTKQIRCNAIINEDPNARLIRELQEEVARLRELLMAQGLSASALEGLKTEEGSVRGALPAVSSPPAPVSPSSPTTHNGELEPSFSPNTESQIGPEEAMERLQETEKIIAELNETWEEKLRKTEALRMEREALLAEMGVAVREDGGTVGVFSPKKTPHLVNLNEDPLMSECLLYHIKDGVTRVGQVDMDIKLTGQFIREQHCLFRSIPQPDGEVVVTLEPCEGAETYVNGKLVTEPLVLKSGNRIVMGKNHVFRFNHPEQARLERERGVPPPPGPPSEPVDWNFAQKELLEQQGIDIKLEMEKRLQDLENQYRKEKEEADLLLEQQRLYADSDSGDDSDKRSCEESWRLISSLREQLPPTTVQTIVKRCGLPSSGKRRAPRRVYQIPQRRRLQGKDPRWATMADLKMQAVKEICYEVALADFRHGRAEIEALAALKMRELCRTYGKPDGPGDAWRAVARDVWDTVGEEEGGGAGSGGGSEEGARGAEVEDLRAHIDKLTGILQEVKLQNSSKDRELQALRDRMLRMERVIPLAQDHEDENEEGGEVPWAPPEGSEAAEEAAPSDRMPSARPPSPPLSSWERVSRLMEEDPAFRRGRLRWLKQEQLRLQGLQGSGGRGGGLRRPPARFVPPHDCKLRFPFKSNPQHRESWPGMGSGEAPTPLQPPEEVTPHPATPARRPPSPRRSHHPRRNSLDGGGRSRGAGSAQPEPQHFQPKKHNSYPQPPQPYPAQRPPGPRYPPYTTPPRMRRQRSAPDLKESGAAV

binding (His-Rab6A): binds
B3: in vitro synthesized 35S-myc-KIF1C (protein, UniProt O43896 1-1103)
chain: B2 chain
modifications: 35S-methionine

B4: myc-KIF1C ΔmotorΔCBD (domain or fragment, UniProt O43896 450-1060)
chain: IIAELNETWEEKLRKTEALRMEREALLAEMGVAVREDGGTVGVFSPKKTPHLVNLNEDPLMSECLLYHIKDGVTRVGQVDMDIKLTGQFIREQHCLFRSIPQPDGEVVVTLEPCEGAETYVNGKLVTEPLVLKSGNRIVMGKNHVFRFNHPEQARLERERGVPPPPGPPSEPVDWNFAQKELLEQQGIDIKLEMEKRLQDLENQYRKEKEEADLLLEQQRLYADSDSGDDSDKRSCEESWRLISSLREQLPPTTVQTIVKRCGLPSSGKRRAPRRVYQIPQRRRLQGKDPRWATMADLKMQAVKEICYEVALADFRHGRAEIEALAALKMRELCRTYGKPDGPGDAWRAVARDVWDTVGEEEGGGAGSGGGSEEGARGAEVEDLRAHIDKLTGILQEVKLQNSSKDRELQALRDRMLRMERVIPLAQDHEDENEEGGEVPWAPPEGSEAAEEAAPSDRMPSARPPSPPLSSWERVSRLMEEDPAFRRGRLRWLKQEQLRLQGLQGSGGRGGGLRRPPARFVPPHDCKLRFPFKSNPQHRESWPGMGSGEAPTPLQPPEEVTPHPATPARRPPSPRRSHHPRRNSLDGGGRSRGAGSAQPEPQHFQPKKHNS
binding (GST-Rab6A Q72L [1]): no binding (tested: 0.2 μM GST-Rab6A Q72L)

binding (GST-Rab6A Q72L [2]): binds
B5: KIF1C construct containing the first 400 amino acid residues (domain or fragment, UniProt O43896 1-400)
chain: MAGASVKVAVRVRPFNARETSQDAKCVVSMQGNTTSIINPKQSKDAPKSFTFDYSYWSHTSTEDPQFASQQQVYRDIGEEMLLHAFEGYNVCIFAYGQTGAGKSYTMMGRQEPGQQGIVPQLCEDLFSRVSENQSAQLSYSVEVSYMEIYCERVRDLLNPKSRGSLRVREHPILGPYVQDLSKLAVTSYADIADLMDCGNKARTVAATNMNETSSRSHAVFTIVFTQRCHDQLTGLDSEKVSKISLVDLAGSERADSSGARGMRLKEGANINKSLTTLGKVISALADMQSKKRKSDFIPYRDSVLTWLLKENLGGNSRTAMIAALSPADINYEETLSTLRYADRTKQIRCNAIINEDPNARLIRELQEEVARLRELLMAQGLSASALEGLKTEEGSVRGA

binding (GST-Rab6A Q72L [1]): binds
B6: myc-KIF1C-350 K103A (domain or fragment, UniProt O43896 1-350)
chain: MAGASVKVAVRVRPFNARETSQDAKCVVSMQGNTTSIINPKQSKDAPKSFTFDYSYWSHTSTEDPQFASQQQVYRDIGEEMLLHAFEGYNVCIFAYGQTGAGASYTMMGRQEPGQQGIVPQLCEDLFSRVSENQSAQLSYSVEVSYMEIYCERVRDLLNPKSRGSLRVREHPILGPYVQDLSKLAVTSYADIADLMDCGNKARTVAATNMNETSSRSHAVFTIVFTQRCHDQLTGLDSEKVSKISLVDLAGSERADSSGARGMRLKEGANINKSLTTLGKVISALADMQSKKRKSDFIPYRDSVLTWLLKENLGGNSRTAMIAALSPADINYEETLSTLRYADRTKQIRC

binding (GST-Rab5A Q79L): no binding (tested: 5 μM)
binding (GST-Rab6A Q72L [1]): binds
binding (GST-Rab9A): no binding (tested: 5 μM)
B7: myc-KIF1C-350 (domain or fragment, UniProt O43896 1-350)
chain: B6 chain with A103K

binding (GST-Rab6A Q72L [2]): binds
B8: KIF1C construct containing the first 500 amino acid residues (domain or fragment, UniProt O43896 1-500)
chain: MAGASVKVAVRVRPFNARETSQDAKCVVSMQGNTTSIINPKQSKDAPKSFTFDYSYWSHTSTEDPQFASQQQVYRDIGEEMLLHAFEGYNVCIFAYGQTGAGKSYTMMGRQEPGQQGIVPQLCEDLFSRVSENQSAQLSYSVEVSYMEIYCERVRDLLNPKSRGSLRVREHPILGPYVQDLSKLAVTSYADIADLMDCGNKARTVAATNMNETSSRSHAVFTIVFTQRCHDQLTGLDSEKVSKISLVDLAGSERADSSGARGMRLKEGANINKSLTTLGKVISALADMQSKKRKSDFIPYRDSVLTWLLKENLGGNSRTAMIAALSPADINYEETLSTLRYADRTKQIRCNAIINEDPNARLIRELQEEVARLRELLMAQGLSASALEGLKTEEGSVRGALPAVSSPPAPVSPSSPTTHNGELEPSFSPNTESQIGPEEAMERLQETEKIIAELNETWEEKLRKTEALRMEREALLAEMGVAVREDGGTVGVFSPKKTPH
